In PubChem BioAssay AID1347423 (Functional Genomics Laboratory (NCATS/FGL), 2020) one finds z-score data, which are given here for 105 sequences.

Among all 52,000 sequences or so, about 210 (0.4%) were called active.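 Rule for the calls: active = gene whose silencing raises cell survival under the drug, median off-target-corrected z-score across its silencing RNAs 2 or more; inactive = the rest.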 The list shows a part of the results.

The assay can be described thus: Resistance to Poly (ADP-Ribose) Polymerase inhibitor: Gene Identification via Genome-wide siRNA Screen. To be noted: mouse BRCA2 R2336H ES cells, olaparib, CellTiter-Glo viability; stronger effect = higher value. The method, boiled down:
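Mouse BRCA2 R2336H ES cells were reverse-transfected with siRNA (20 nM final), treated at 48 h with 500 nM olaparib, and read by CellTiter-Glo after 72 h. Scores: MAD-based z per siRNA, median per gene, seed off-target correction.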
(In general: Cellular ATP, detected with luciferase, serves as a proxy for viable cell number.)
For the sequence “GGAGACAGCAAAAGGGCUGTT against D930010J01Rik”, the z-score was inactive: -0.12.
Then GGCACACAAUUUUCACUGATT against Pcdhb9, with inactive: 1.19; and GGACUUCUGGAUUGUUGGATT against Thpo, with inactive: -1.91.
For the sequence “GCCCGUAAAACUCUUUCAGTT against 4930458L03Rik”, the z-score was inactive: 0.795.
Then GGUAACAUCCCAGCUUUACTT against Pax7, with inactive: -1.11; and GGAAACAUUGUCAUCAUGATT against Olfr1299, with inactive: 0.897.
Then GGACUGAUCAUCUAUGACATT against AU042671, with inactive: 0.666; and GGUAAAAUCCCAGAACUGCTT against Serpinb1b, with inactive: 1.32; and CGACAAGGAGACCUACAAATT against Itm2b, with inactive: -2.13.
Then GCUACAGUUUGUGGGUGACTT against LOC574428, with inactive: -0.0295; and GGAUGUGCUCGGUUGGAAGTT against Mata2, with inactive: 0.00669; and GGCUGUAUGUAUAUAGUCCTT against Snrpb, with inactive: -2.2.
For the sequence GGCUAUCUCGUAUUCUGAUTT against Olfr985, the z-score was inactive: -0.668.
Then CCGACUUCGUACAAUGACCTT against Slc1a6, with inactive: 1.09; and GGCAGAGACCUCAAAACCATT against Selpl, with inactive: 0.839; and CCGUUUACGGCCACUAACUTT against Phkg2, with inactive: 0.289.
Then GAUCUGUUACUCUUCUACUTT against Olfr1270, with inactive: -0.119; and GGACAUCAACUAUGCCUCUTT against Kif1a, with inactive: 1.5; and GGGAAACCGAGUCAAGAAGTT against Fgf11, with inactive: 1.51.
Then GGCUGCCUUCAUCUUUUCUTT against Fth1, with inactive: -1.4; and GGACAGAGCGUGCACUAGATT against Pqlc2, with inactive: 0.262.
As for GGUCUUCCGGGAGAUCAUUTT against Temt, the z-score is inactive: -0.227.
Then CCGAAAAUGAGAUAAAGUCTT against Polr2k, with inactive: -2.3; and “GCCGUGAACUUGCCAUCAATT against 4930517K23Rik”, with inactive: -0.34.
Then CCACCCAAAAGUAAAAAGUTT against Rpp38, with inactive: -0.201.
Then GGUCUUCAGCACCUUUGAATT against Ccl2, with inactive: -1.17.
Regarding GGACUACAACUACCUUAACTT against Cdh3, the z-score was inactive: -0.877.
Consider GGUCCUUCCAUAGUGACGCTT against Igfbp7, for which the z-score was inactive: 0.24.
Then GAACACAAAUCUAGUAGACTT against Olfr1109, with inactive: 0.365; and GGAAAGUGUUUUGUCAAUGTT against Olfr1305, with inactive: 0.576; and GCAUGCAGAGUUACUAUUGTT against Tas2r143, with inactive: -1.64.
Take GGUAUGGAAGACAAAACCUTT against Gm14: the z-score is inactive: 0.685.
Then CGAGUCAGACCUUGAUCUATT against Zfp406, with inactive: 0.26; and “CGAGAAUAUCAUUUAUUGCTT against 2310045B01Rik”, with inactive: 0.0243.
Then GGAUAAAUGGGUAAUUCUGTT against V2R2, with inactive: 0.563; and CGGAGUUGACCUGACAUCCTT against Atp6v1c2, with inactive: -1.33.
Then CGGUGAAGACUAUCAUGGUTT against Tln1, with inactive: -0.313; and GGCGACCUCUAGGUGUCUUTT against Falz, with inactive: -0.787; and GCUCAUGUCUUAUUUGGAUTT against Klhl15, with inactive: 0.562.
Turning to GGAAGUUAAGCAUAGUUUCTT against Flrt3, the z-score is inactive: 0.9.
As to AAGGUCGUUUACAUGAACATT against MGC103250, the z-score is inactive: 0.616.
Then GGCAUACCCAAAAAUAGAATT against Eif1a, with inactive: -0.883; and GGCCAAGUUCAACAUUCCATT against Lilrb4, with inactive: 0.206.
CCACCUGUGCUACCACUUATT against Gm111: the z-score was inactive: -0.118.
Then GCCCAAGGAGGCAUUGAUATT against Fbxo8, with inactive: -0.323.
Then CGCAAGCUUAUUUCAAUGGTT against Cd86, with inactive: 0.386; and GGAGCAAAUCCAGAGCAACTT against Actr8, with active: 2.88; and GGGUCUCCAAACCAUCAGUTT against Kir3dl1, with inactive: 0.356.
Turning to “GGGAUUAUCAUGCUUCAGATT against A930025J12Rik”, the z-score is inactive: 1.62.
For GGUAUUGCACCAGGCAUGUTT against Ssh3, the z-score is inactive: -0.783.
Then “GGGUACCAUAGGAACCAUGTT against 2310016N21Rik”, with inactive: -0.742.
Then GGAGGUGUAUGUAAUACCATT against Efs, with inactive: 1.38; and “GGAGGUUUUGGAAGAAGAATT against 1700012B09Rik”, with inactive: -1.28; and GCUCUUCAGAGUGAUCCAATT against Acmsd, with inactive: 0.0794.
Then “GGCCAAGAUAAAAAAGGCCTT against 2610002M06Rik”, with inactive: 0.766; and CCUAAUCUUUGUUCAGACCTT against 4.93E+26, with inactive: 0.0559; and GGGAGAGAUCCUCAACAGGTT against Cdk5rap1, with inactive: 1.38.
CGUACUUGUUUGAUUGAUCTT against Usp13: the z-score is inactive: -0.044.
Then GGCAUAGAGUACUUGCAUUTT against Camkk2, with inactive: 0.414; and GGACAACUGACUCCAUCAATT against Pla2g6, with inactive: -0.414; and CCAGUGUUGUUCUGUAAAUTT against Tsga14, with inactive: -0.905.
Then GGAGACAUUGGAGUAUGUCTT against Cst11, with inactive: 2.92; and “GGCCAAAAGGUUGAGCAGUTT against D13Wsu123e”, with inactive: -1.01; and CCUCAGUCCUCUGUUAAAATT against Olfr355, with inactive: -0.574.
Then GGACCUCUUGCUAAUCCAATT against Ptprk, with inactive: 0.666; and GGGUUGUGAAGAGAUUAAATT against Il1rl2, with inactive: -0.943.
For GGACACACAUUCUUACAAATT against Ppap2a, the z-score is inactive: 0.912.
Then GGCAACUUUGAGUUUGGUATT against Podn, with inactive: 0.498; and GGAGAUGAAGUCUAUAUCATT against C1ql3, with inactive: 1.36; and GGAGGACAUAUAGCUGAUUTT against Ctdsp2, with inactive: 2.37.
Then “GGUUGCUCAGAUUCAGAAUTT against 5830446M03Rik”, with inactive: -2.62.
Then CGAGAACAGUUUGUACAAGTT against Serpinh1, with inactive: 0.414; and GGAUGUUUCAGACAAGCUCTT against Olfr156, with inactive: -1.33; and GGUUGAAUUGGAGAAGAUUTT against Pcnt2, with inactive: -2.06.
For the sequence GGAAUUCAAUCAGUUUGCUTT against Dysf, the z-score is inactive: 0.0588.
For the sequence GAUGUAGAGUUUGGAAUGATT against Psmb10, the z-score is inactive: 2.43.
Then GGGUGCAUCCCAUUCUCUUTT against Pld1, with inactive: 0.0435; and GCUCCUAGGAACUUGGUUATT against Pacsin2, with active: 2.36; and “GGGCUUUAUAAGACAGUCUTT against A730012O14Rik”, with inactive: -1.56.
Then CCCAACAAGAGUAUCUAUGTT against Foxh1, with inactive: -0.653; and CGAAGUCGUGGCAAUGAUUTT against Hirip5, with inactive: 0.567.
As to GGAGGUUCGAAGCUCGAUCTT against Trim28, the z-score is inactive: -0.13.
GCUAGUGCUUUUAACUCUATT against Csprs: the z-score is inactive: 0.649.
Turning to GCAGGAAGCCCAGUAAAGUTT against Figla, the z-score was inactive: 1.3.
Consider GGGAGAACUUACAAAAAGATT against BC068281, for which the z-score was inactive: -0.841.
Then GGCCCUAGAUUUUUAUGGGTT against Pten, with inactive: 0.42; and CGACUUAAAUUGCUUGUGATT against Gas1, with inactive: -1.35.
Then GUCUGGAUAUUUGACACUATT against BC027828, with inactive: 1.02; and “GGGUGCUAAAGAAUGUAUUTT against 9330182L06Rik”, with inactive: -0.702.
Then GCAUGUACCCUCUUUGUAGTT against Gjb6, with inactive: -0.174.
Turning to “GGAUUACCACAAAUCUGAATT against 4930517G15Rik”, the z-score is inactive: -0.483.
As to CCUGCAAAUGAUACCACCGTT against Olfr734, the z-score was inactive: 1.08.
Then GGCUGAGCUGGAAAUCCAGTT against Aprt, with inactive: 0.228; and GGAAAUUUGGUGAGCAUUUTT against Synj2bp, with inactive: 0.168; and GCACGGAGCCAAAUAAUCUTT against Rpl28, with inactive: -0.911.
Then GGGCUUCACUAAUGUCAAGTT against Rgs19ip1, with inactive: 0.739; and GGAGGUCCUAGAGUACAAUTT against Fdps, with inactive: 0.428; and GCCCAAACUCAAGCAAGUCTT against Trpm3, with inactive: -2.79.
Then GGAGGGACAUGGAGAUUACTT against Ptpn18, with inactive: 0.667; and GGUUCAGAACAUUAACUCCTT against Rab18, with inactive: 0.339.
As for CCUCUGGUCUCUUAGAAAGTT against Frda, the z-score is inactive: -0.0262.
Then GGAAAAGAGCAACUACCAGTT against Brf1, with inactive: -1.48; and GGUGCUUAAUCAACAGAAATT against Scn3a, with inactive: 0.48.
Then GGUCUCCAAAGCAGAUACCTT against Svil, with inactive: -2.57; and CGAAUUGGAGAGGAGCUUCTT against Otp, with inactive: 0.0821.
